## Cleaved PARP after 72 h of treatment

Source: doi:10.1371/journal.pone.0140310, primary screening data, rounded.

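Human melanoma cell lines in 1,536-well plates were treated with two drugs together for 72 h, then fixed, stained and imaged. The read-out is the fraction of cleaved-PARP-positive nuclei, in % of that fraction in the DMSO control; 200 means twice the control level of this apoptosis marker. Every drug was used at one fixed concentration, the higher of two screened. No replicate spread is given; individual values may be noisy. The marker varies much from line to line, for technical or biological reasons.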
Only some of the drugs and lines screened are listed, without regard to their results.
An entry leaves out what has no value listed here.
A dash means that no value is listed here.

All values are for the listed drug together with nilutamide (5 µM): CC1(C)NC(=O)N(c2ccc([N+](=O)[O-])c(C(F)(F)F)c2)C1=O

| Partner | RVH-421 | LB2518-MEL | LOX IMVI | WM1716 | WM3526 | A101D | C32 | RPMI-7951 |
|---|---|---|---|---|---|---|---|---|
| CS(=O)(=O)c1ccc(C(=O)Nc2ccc(Cl)c(-c3ccccn3)c2)c(Cl)c1 at 5 µM | 162 | 301 | 135 | 156 | 131 | 64.1 | 85.9 | 32.9 |
| CC(C)CCN1c2nc(Nc3cc(F)c(O)c(F)c3)ncc2N(C)C(=O)C1C (centres unmarked) at 1 µM | 42.4 | 26.1 | 84.5 | 135 | 135 | 181 | 88.8 | 71.6 |
| CN1CCN(c2ccc3nc(-c4c(N)c5c(F)cccc5[nH]c4=O)[nH]c3c2)CC1 at 0.5 µM | 88.8 | 164 | 69.0 | 84.2 | 48.7 | 64.3 | 94.0 | 182 |
| O=C(/C=C/c1cccnc1)NCCCCC1CCN(C(=O)c2ccccc2)CC1 at 0.05 µM | 166 | 553 | 217 | 118 | 87.9 | 49.7 | 147 | 21.8 |
| CC(C)(C)c1cnc(CSc2cnc(NC(=O)C3CCNCC3)s2)o1 at 0.05 µM | 69.3 | 117 | 65.1 | 98.3 | 228 | 104 | 203 | 289 |
| CC(C)C[C@H](NC(=O)[C@H](Cc1ccccc1)NC(=O)c1cnccn1)B(O)O at 0.005 µM | 750 | - | 399 | 13300 | 3530 | 614 | 3500 | 7270 |
| Cn1cncc1[C@@](N)(c1ccc(Cl)cc1)c1ccc2c(c1)c(-c1cccc(Cl)c1)cc(=O)n2C at 0.05 µM | 116 | 149 | 29.1 | 180 | 148 | 73.3 | 425 | 216 |
| O=c1cc(-c2cccc3c2Sc2ccccc2S3)oc(N2CCOCC2)c1 at 5 µM | 453 | 86.5 | 96.6 | 38.1 | 62.4 | 74.7 | 79.1 | 65.4 |
| O=C(Nc1ccccc1)c1cc([N+](=O)[O-])ccc1Cl at 10 µM | 79.5 | 97.3 | 53.2 | 92.0 | 228 | 51.6 | 94.5 | 71.5 |
| CO[C@H]1C[C@@H]2CC[C@@H](C)[C@@](O)(O2)C(=O)C(=O)N2CCCC[C@H]2C(=O)O[C@H]([C@H](C)C[C@@H]2CC[C@@H](OCCO)[C@H](OC)C2)CC(=O)[C@H](C)/C=C(\C)[C@@H](O)[C@@H](OC)C(=O)[C@H](C)C[C@H](C)/C=C/C=C/C=C/1C at 0.1 µM | 70.0 | 152 | 355 | 58.3 | 197 | 110 | 63.3 | 52.9 |
| C[C@@H](Oc1cc(-c2cnn(C3CCNCC3)c2)cnc1N)c1c(Cl)ccc(F)c1Cl at 1 µM | 51.7 | 156 | 183 | 101 | 132 | 57.3 | 262 | 107 |
| O=C(O)c1ccc(-c2c[nH]c3ncc(-c4ccccc4)cc23)cc1C1CCCC1 at 0.8 µM | 30.4 | 152 | 312 | 104 | 316 | 232 | 79.2 | 103 |
| Cn1cc(C2=C(c3cn(C4CCN(Cc5ccccn5)CC4)c4ccccc34)C(=O)NC2=O)c2ccccc21 at 4 µM | 749 | 66.5 | 56.4 | 342 | 221 | 106 | 87.8 | 57.6 |
| OCCn1cc(-c2cnc3nnn(Cc4ccc5ncccc5c4)c3n2)cn1 at 5 µM | 77.6 | 124 | 171 | 99.8 | 106 | 96.7 | 121 | 104 |
| Cn1c(Nc2ccc(C(F)(F)F)cc2)nc2cc(Oc3ccnc(-c4ncc(C(F)(F)F)[nH]4)c3)ccc21 at 0.4 µM | 78.6 | 116 | 153 | 292 | 487 | 133 | 500 | 154 |
| Cc1cc(SCc2sc(-c3ccc(C(F)(F)F)c(F)c3)nc2C)ccc1OCC(=O)O at 10 µM | 123 | 32.0 | 63.4 | 50.1 | 69.9 | 45.8 | 92.5 | 73.8 |
| CN(c1ncccc1CNc1nc(Nc2ccc3c(c2)CC(=O)N3)ncc1C(F)(F)F)S(C)(=O)=O at 0.4 µM | 46.0 | 126 | 86.3 | 132 | 173 | 37.6 | 703 | 154 |
| Clc1ccc(Nc2nnc(Cc3ccncc3)c3ccccc23)cc1 at 10 µM | 103 | 394 | 63.9 | 154 | 163 | 250 | 225 | 226 |
| Cn1nnc2c(C(N)=O)ncn2c1=O at 10 µM | 143 | 54.3 | 54.3 | 820 | 82.7 | 133 | 57.8 | 135 |
| Nc1cccc2c1CN(C1CCC(=O)NC1=O)C2=O (centres unmarked) at 5 µM | 192 | 79.8 | 59.7 | 19.7 | 89.8 | 195 | 57.3 | 91.5 |
| COc1ccc(-c2ccc3c(N4CCOCC4)nc(N4C[C@@H](C)O[C@@H](C)C4)nc3n2)cc1CO at 0.1 µM | 107 | 228 | 16.8 | 78.9 | 43.5 | 177 | 90.5 | 51.9 |
| Cc1nc(Nc2ncc(C(=O)Nc3c(C)cccc3Cl)s2)cc(N2CCN(CCO)CC2)n1 at 0.02 µM | 176 | 136 | 747 | 598 | 131 | 333 | 282 | 152 |
| C=C(c1ccc(C(=O)O)cc1)c1cc2c(cc1C)C(C)(C)CCC2(C)C at 10 µM | 112 | 96.1 | 86.9 | 118 | 139 | 81.1 | 82.7 | 43.4 |

Once more, the final 3:

* COc1ccc(-c2ccc3c(N4CCOCC4)nc(N4C[C@@H](C)O[C@@H](C)C4)nc3n2)cc1CO at 0.1 µM | RVH-421: 107; LB2518-MEL: 228; LOX IMVI: 16.8; WM1716: 78.9; WM3526: 43.5; A101D: 177; C32: 90.5; RPMI-7951: 51.9
* Cc1nc(Nc2ncc(C(=O)Nc3c(C)cccc3Cl)s2)cc(N2CCN(CCO)CC2)n1 at 0.02 µM | RVH-421: 176; LB2518-MEL: 136; LOX IMVI: 747; WM1716: 598; WM3526: 131; A101D: 333; C32: 282; RPMI-7951: 152
* C=C(c1ccc(C(=O)O)cc1)c1cc2c(cc1C)C(C)(C)CCC2(C)C at 10 µM | RVH-421: 112; LB2518-MEL: 96.1; LOX IMVI: 86.9; WM1716: 118; WM3526: 139; A101D: 81.1; C32: 82.7; RPMI-7951: 43.4